Measurements: PMC6488296
Results are given in words; binding and its absence hold for the method and conditions named.

By UniProt entry, the sequences of proteins in these tests, tags left out. Residues count along the entry.
UniProt Q8L5W7, residues 1-100: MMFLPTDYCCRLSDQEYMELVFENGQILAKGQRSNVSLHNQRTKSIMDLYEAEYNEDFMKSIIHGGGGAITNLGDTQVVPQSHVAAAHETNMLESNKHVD
UniProt P14713, residues 1-651: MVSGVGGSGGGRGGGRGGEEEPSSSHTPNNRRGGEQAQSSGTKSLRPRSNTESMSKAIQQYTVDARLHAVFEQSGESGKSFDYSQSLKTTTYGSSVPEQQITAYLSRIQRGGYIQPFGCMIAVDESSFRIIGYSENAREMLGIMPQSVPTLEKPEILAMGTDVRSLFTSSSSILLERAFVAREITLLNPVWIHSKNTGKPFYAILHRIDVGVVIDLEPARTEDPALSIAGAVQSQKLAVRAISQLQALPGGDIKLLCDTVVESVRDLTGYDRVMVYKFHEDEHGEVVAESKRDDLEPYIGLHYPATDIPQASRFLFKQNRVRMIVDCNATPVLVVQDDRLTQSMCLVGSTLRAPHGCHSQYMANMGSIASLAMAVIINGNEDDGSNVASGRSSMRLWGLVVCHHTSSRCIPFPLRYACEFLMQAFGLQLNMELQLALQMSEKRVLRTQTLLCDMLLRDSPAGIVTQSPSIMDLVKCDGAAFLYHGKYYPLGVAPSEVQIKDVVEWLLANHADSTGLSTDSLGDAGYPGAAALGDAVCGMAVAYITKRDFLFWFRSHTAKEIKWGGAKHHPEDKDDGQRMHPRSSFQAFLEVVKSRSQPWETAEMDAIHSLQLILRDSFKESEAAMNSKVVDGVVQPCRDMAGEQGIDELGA

Biological target: MBP-PIF6_(1-100)-His6 (A. thaliana) (UniProt Q8L5W7)
Assay: SEC; as a1, but PhyB illuminated with saturating 740 nm light (OFF state); both purified

PhyB_(1-651)-Avitag-His6 (from UniProt P14713 1-651) (domain or fragment)
binding: no binding (condition: PhyB illuminated with 740 nm light)
